Assay results published in PMC7819943, “Rice protein-binding microarrays: a tool to detect cis-acting elements near promoter regions in rice”.
The other results are listed elsewhere or left out.

Target: T1, OsSMF1 (Oryza sativa, UniProt Q6ZLB0 1-436)
T1 sequence: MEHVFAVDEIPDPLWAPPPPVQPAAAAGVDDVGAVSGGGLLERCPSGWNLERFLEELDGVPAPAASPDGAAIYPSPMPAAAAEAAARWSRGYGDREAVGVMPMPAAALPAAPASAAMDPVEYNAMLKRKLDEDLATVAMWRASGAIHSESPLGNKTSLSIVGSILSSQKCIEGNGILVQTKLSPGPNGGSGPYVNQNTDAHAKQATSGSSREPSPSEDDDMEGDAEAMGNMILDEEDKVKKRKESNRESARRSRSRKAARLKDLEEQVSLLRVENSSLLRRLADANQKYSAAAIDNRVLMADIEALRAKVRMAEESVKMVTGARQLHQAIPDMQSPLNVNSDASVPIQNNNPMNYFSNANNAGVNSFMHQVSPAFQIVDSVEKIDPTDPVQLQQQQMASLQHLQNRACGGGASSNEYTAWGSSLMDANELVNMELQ
Assay: protein-binding microarray (RPBM); PBS, 2% BSA, 51.3 ng/ul salmon testes DNA, 50 uM zinc acetate, 200 nM TF, 25 C, 1 h; high values mean tight binding
Conditions: protein: recombinant; tags: N-terminal polyhistidine and DsRed monomer fusion (pET32a); chain copies: 2; label: CyDye5-dUTP incorporated in the synthesized complementary strand; 3' TTTTT single-stranded linker to array surface; dsDNA, one strand shown
How it was run: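 Using Ni–NTA, transcription factors fused N-terminally to polyhistidine and DsRed were purified after expression in E. coli BL21-CodonPlus. These were incubated at 200 nM with a blocked, double-stranded custom Agilent array for 1 h at 25 °C in a buffer containing 50 µM zinc acetate, and the array was washed. The binding signal is per-feature fluorescence intensity (arbitrary units) on an Axon 4000B scanner.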

Sequence | binding signal
ACTCATCAGCAATACAAAATGACAGATAGGCACAGTTGTTCGGAGTCACCTAGTGCAG | 3470 fluorescence intensity (a.u.)
ACACCTAACCTTGACGCGCATACACGTACACGTACGGCGCCGGAGTCACCTAGTGCAG | 5440 fluorescence intensity (a.u.)
CGGCTGAGGGACGGGCGGGAGGAGGTGGTCGGGTACGGGGCGGAGTCACCTAGTGCAG | 4690 fluorescence intensity (a.u.)
CACAGTCGACGACACCCTCCATCTCCGTCCCTCCCACTCCCGGAGTCACCTAGTGCAG | 7160 fluorescence intensity (a.u.)
ATCCACAACGTACACGCACGTAGTACAAGTAGTACTCCATCGGAGTCACCTAGTGCAG | 3210 fluorescence intensity (a.u.)
CCACCTTTTATTTTGCTTCCAAGTACCACGTCACCGCCATCGGAGTCACCTAGTGCAG | 25000 fluorescence intensity (a.u.)
CACTGCTGTTCCGCCACGTGGCACCCACCCCAATCCGCAGCGGAGTCACCTAGTGCAG | 7640 fluorescence intensity (a.u.)
GCGCACCTCCTCCAGCACCTCGGGCACCGTGACGAGGCGGCGGAGTCACCTAGTGCAG | 4530 fluorescence intensity (a.u.)
CCACCACTACCGCAGTTGCTTGCTGGCTCATCAACACTGCCGGAGTCACCTAGTGCAG | 3450 fluorescence intensity (a.u.)
GATCCTGCATCCAACACGGCATCATAATCATCAGTCATTCCGGAGTCACCTAGTGCAG | 3850 fluorescence intensity (a.u.)
TAATGTCGTGCCGTATGAGCAATGGTGACTGGCGAGCCAACGGAGTCACCTAGTGCAG | 3900 fluorescence intensity (a.u.)
AAGCATGCCCTAGAAGATGGCCACCAGTCCTGGAGCCAGTCGGAGTCACCTAGTGCAG | 4860 fluorescence intensity (a.u.)
ATAGCTACCTACTATGCCGCGTAACTATTATGTGCACCGTCGGAGTCACCTAGTGCAG | 3180 fluorescence intensity (a.u.)
TGGCCCGGGCCACTACCCGCGCCGCCCCGTCGCCGACCTGCGGAGTCACCTAGTGCAG | 3340 fluorescence intensity (a.u.)
TTTTGGATCCAACGTCCCATATCAGCGCGCGTCCCACACCCGGAGTCACCTAGTGCAG | 4310 fluorescence intensity (a.u.)
GACCGCTCCACTCCCCTCTCCCTTCCCCTTTTCGGCATGTCGGAGTCACCTAGTGCAG | 3500 fluorescence intensity (a.u.)
ATAGCAGCTGTCATCTCCAAATCATTGGAAGCCGGCCTCACGGAGTCACCTAGTGCAG | 3840 fluorescence intensity (a.u.)
AGCATAAACAAGGTCAAGAATGACGTCAGACATACTCCAACGGAGTCACCTAGTGCAG | 19600 fluorescence intensity (a.u.)
GACAACGTCGATGACTGCCGTGACGATGATGGCGGCGACGCGGAGTCACCTAGTGCAG | 4860 fluorescence intensity (a.u.)
GCGGCTAGTTCTCCATCGAAAACGTTTTCTCGGCTACGTGCGGAGTCACCTAGTGCAG | 3180 fluorescence intensity (a.u.)
ACAGGGCTTGGAATAGGTTGGTGTACAGGGCGGTAGCTTACGGAGTCACCTAGTGCAG | 3850 fluorescence intensity (a.u.)

Retrieved one by one from the entries so far, 2 records:
Sequence | binding signal
ATCCACAACGTACACGCACGTAGTACAAGTAGTACTCCATCGGAGTCACCTAGTGCAG | 3210 fluorescence intensity (a.u.)
CCACCTTTTATTTTGCTTCCAAGTACCACGTCACCGCCATCGGAGTCACCTAGTGCAG | 25000 fluorescence intensity (a.u.)

Additional entries

Sequence | binding signal
ACAGGCCCACCAGCCCATATAACATATGCCACGTCACCGACGGAGTCACCTAGTGCAG | 26800 fluorescence intensity (a.u.)
GCCGGCGGGGAGGGAGGTCCGGAGGAAGTGAAATGGCGGCCGGAGTCACCTAGTGCAG | 3170 fluorescence intensity (a.u.)
GAGTGTACCGTCTTAGCGGGACTCCTACTAAGGAAGCCTACGGAGTCACCTAGTGCAG | 30500 fluorescence intensity (a.u.)
TAATTCTGCATGTGCACTCTGCTGACACAGTTCTACTTATCGGAGTCACCTAGTGCAG | 3420 fluorescence intensity (a.u.)
AACATCATATATTGATGATTATTTGCTGCATAAGGAGATGCGGAGTCACCTAGTGCAG | 4070 fluorescence intensity (a.u.)
CGCCACCGGGCTTACAACACCACCACGGAGCAAAGACTGTCGGAGTCACCTAGTGCAG | 3640 fluorescence intensity (a.u.)
CTCCGCCCTCCGCCGCCTCCGTTGCCAACCGCCACCGTCCCGGAGTCACCTAGTGCAG | 4990 fluorescence intensity (a.u.)
CACGCAGTCACTCACGCTCGCCGCCAGCACACACCTCCGTCGGAGTCACCTAGTGCAG | 4200 fluorescence intensity (a.u.)
CCGTCGTCGCTCCGAAGAAGGATGAAGGCGTCACGGGCGACGGAGTCACCTAGTGCAG | 3230 fluorescence intensity (a.u.)
CCCACAGAGGAGGGGCGCGCCAGCCATGCTGGCGCCGTGGCGGAGTCACCTAGTGCAG | 3140 fluorescence intensity (a.u.)
TGCCCTGGACGCGCTTGGCCGTCGATGTCATCATGGACGCCGGAGTCACCTAGTGCAG | 5570 fluorescence intensity (a.u.)
CGAGTATTTATTTAGGTGTTTAGTTCAAAGCAGAGTTGCTCGGAGTCACCTAGTGCAG | 22000 fluorescence intensity (a.u.)
TTTCATGCCTCCTCCATGTTGGCAATTTGACATGTCCTTCCGGAGTCACCTAGTGCAG | 3340 fluorescence intensity (a.u.)
ATCTCTTCTTCCGCTTGGACTCATCGCCGTGACGTCGACGCGGAGTCACCTAGTGCAG | 5470 fluorescence intensity (a.u.)
TCTACTCCTAAATCCACATCATCTTTAGCAAAAGCAACAACGGAGTCACCTAGTGCAG | 4670 fluorescence intensity (a.u.)
CATCACTTATTTTGTTGTGACCTATTTTATCATTAAAATACGGAGTCACCTAGTGCAG | 3200 fluorescence intensity (a.u.)
TTAGCTTCACAGTTCACTGTAGCGTCTAGAAGAGGAACAGCGGAGTCACCTAGTGCAG | 63300 fluorescence intensity (a.u.)
CAGAACGTGATGGAGGAGGACCGCACGCTGCGGTGGCACGCGGAGTCACCTAGTGCAG | 18100 fluorescence intensity (a.u.)
ATAGCCCAACTCGAATCAATCCACGTCTCCACCGTTCATCCGGAGTCACCTAGTGCAG | 3360 fluorescence intensity (a.u.)
TTAGCGCTAGAGCTAGGCCGGCCACTACACATCATATCGACGGAGTCACCTAGTGCAG | 3700 fluorescence intensity (a.u.)
GTCGTCCGAATCCAAAACCGTCGCGGCCACGTCACCGAGTCGGAGTCACCTAGTGCAG | 25600 fluorescence intensity (a.u.)
